Source: PubChem BioAssay AID720504 (National Center for Advancing Translational Sciences (NCATS), 2013)
Values joined by “and” are separate entries in the source; they are usually repeats but may differ in a detail not shown here. Equal values may be shown once. The whole screen tested about 360,000 compounds, of which about 10,000 (2.8%) were called active. Inconclusive means that the source gave no clear call. Such entries were picked first, then a sample of the others. Calls follow the shape of the dose curve; as a rule, active = well fitted inhibition curve with a large enough effect; inconclusive = small, poorly fitted or top-dose-only effect; inactive = flat fitted curve, though single readings scatter. Potencies of inconclusive entries are doubtful fits and often do not repeat.
% is scaled to controls: 0 for no effect and ±100 for the full control effect; potency is read from the fitted curve at half-maximal effect.
Also: nearly all actives have a fitted effect of over 65% in size.
For max response, negative = inhibition in this document: series mostly up to about 57 µM.

The chains behind the UniProt entries cited, without tags or fusion partners.
UniProt P53350, whole entry, looked up: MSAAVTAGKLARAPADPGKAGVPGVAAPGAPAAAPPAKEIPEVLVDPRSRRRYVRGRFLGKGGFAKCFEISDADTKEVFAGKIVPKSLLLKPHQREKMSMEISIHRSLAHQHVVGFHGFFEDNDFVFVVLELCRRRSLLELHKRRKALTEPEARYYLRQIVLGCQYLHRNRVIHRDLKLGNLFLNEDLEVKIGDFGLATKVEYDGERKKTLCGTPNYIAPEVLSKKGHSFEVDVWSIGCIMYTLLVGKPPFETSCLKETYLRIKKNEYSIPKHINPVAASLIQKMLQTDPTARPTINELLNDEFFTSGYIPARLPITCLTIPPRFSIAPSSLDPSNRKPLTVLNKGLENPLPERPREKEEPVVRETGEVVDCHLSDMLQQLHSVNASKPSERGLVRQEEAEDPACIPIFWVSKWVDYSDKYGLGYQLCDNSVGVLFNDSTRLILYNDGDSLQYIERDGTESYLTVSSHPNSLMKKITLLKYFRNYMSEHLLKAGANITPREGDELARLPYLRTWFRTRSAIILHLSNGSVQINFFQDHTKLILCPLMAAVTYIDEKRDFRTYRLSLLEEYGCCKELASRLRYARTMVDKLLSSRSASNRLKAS

These compounds were tested against Serine/threonine-protein kinase PLK1 (Homo sapiens) (UniProt P53350) (assay: qHTS for Inhibitors of PLK1-PDB (polo-like kinase 1 - polo-box domain): Primary Screen). Settings: Plk1 PBD binding of FITC phosphopeptide, fluorescence polarization.
`Cc1cc2c(NC(=O)Nc3ccc(C(F)(F)F)cc3)cccc2nn1` was tested, and the Potency was inconclusive: 23.8 µM [inhibitor, single point]. In the case of `O=C(CSc1nc2cc(Cl)c(Cl)cc2[nH]1)c1ccc2c(c1)OCO2`, the Potency is reported as inconclusive: 23.8 µM [inhibitor, partial curve]. With `CCOC(=O)c1c(C(C)(C)C)oc2ccc(O)cc12` the max response, negative = inhibition was inactive: -1.23%. With `COc1ccc(OC)c(-n2c(-c3cccc(C)c3)n[nH]c2=S)c1` the Potency was inconclusive: 29.9 µM [inhibitor, single point]. With `COc1ccc(N=C2NN=C(c3ccc4c(c3)OCCO4)CS2)cc1` the Potency was active: 26.7 µM. In the case of `NC(=O)CSc1nc2c(sc(=S)n2-c2ccccc2)c(=O)[nH]1`, the max response, negative = inhibition is reported as inactive: -7.99%. For `COc1ccc(/C=N\NC(=O)c2sccc2C)cc1Cn1nc(C)cc1C`, the max response, negative = inhibition was inactive: 6.08%. In the case of `CCC(C)NC(=O)c1cc(OC)c(OC)c(OC)c1` (stereo unspecified), the Potency is reported as inconclusive: 23.8 µM [inhibitor, single point]. In the case of `O=C(O)c1ccc(NC(=O)c2ccccc2NC(=O)c2cccc(Br)c2)cc1`, the Potency is reported as active: 21.2 µM. `CCN(CC(=O)Nc1cc(Cl)ccc1C)C(=O)C1CC1` was tested, and the max response, negative = inhibition was inactive: -4.81%. `O=C(OCC(=O)N1CCN(C(=O)c2ccco2)CC1)c1cc(-c2ccco2)nc2ccccc12` was tested, and the Potency was inconclusive: 26.7 µM [inhibitor, single point]. For `CC(C)(C)OC(=O)CNC(=O)c1[nH]cnc1C(=O)NCC(=O)OCc1ccccc1`, the Potency was inconclusive: 37.7 µM [inhibitor, single point]. With `Cc1nc(NC(N)=S)sc1C(=O)Nc1ccccc1` the Potency was inconclusive: 26.7 µM [inhibitor, partial curve]. In the case of `CCCNC(=O)c1onc(CSc2ccccc2)c1C(=O)NCCC`, the max response, negative = inhibition is reported as inconclusive: -32.2% [inhibitor]. For `Cn1c(N)c(C(=O)Nc2ccc(-c3ccccc3)cc2)sc1=S`, the Potency was active: 15 µM. `Nc1nc(-c2ccccc2)c(-c2ccccc2)s1` was tested, and the Potency was inconclusive: 29.9 µM [inhibitor, partial curve]. `CC(=O)n1cc(Nc2ccc([N+](=O)[O-])cc2)c2ccccc21` was tested, and the max response, negative = inhibition was inactive: -13.6%. In the case of `CC(NO)/C(=N\O)c1cccs1` (stereo unspecified), the max response, negative = inhibition is reported as inactive: -3.25%. For `Cc1oc(C(=O)O)cc1CSCc1cc(C(=O)O)c(C)o1`, the Potency was inconclusive: 21.2 µM [inhibitor, partial curve]. With `COc1ccc(C(C)=O)cc1COC(=O)CCNS(=O)(=O)c1ccc(C)cc1` the Potency was inconclusive: 21.2 µM [inhibitor, partial curve]. With `Cc1ccc(C(C(=O)NCc2ccco2)N(Cc2ccco2)C(=O)CNC(=O)c2ccco2)cc1` (stereo unspecified) the Potency was inconclusive: 23.8 µM [inhibitor, partial curve]. For `CSc1c(SCc2ccccc2)cnn(Cc2ccccc2)c1=O`, the Potency was inconclusive: 15 µM [inhibitor, partial curve]. For `CCc1c(C)nc2c(C)cccc2c1SCCC#N`, the Potency was inconclusive: 13.4 µM [inhibitor, partial curve]. For `COC(=O)CSC1=C(C#N)C(=O)NC(c2ccccc2)S1` (stereo unspecified), the Potency was inconclusive: 11.9 µM [inhibitor, partial curve, poor fit]. With `O=C(COC(=O)c1cccc(F)c1)Nc1ccc(Cl)cn1` the max response, negative = inhibition was inactive: 0.798%. For `Cc1cc2nc(-c3ccc(SCc4ccccn4)nc3)[nH]c2cc1C`, the Potency was inconclusive: 23.8 µM [inhibitor, partial curve]. With `CCOC(=O)C1=C(CSc2nc(-c3ccccc3)ccc2C#N)OC(N)=C(C#N)C1c1cccnc1` (stereo unspecified) the Potency was inconclusive: 16.8 µM [inhibitor, partial curve]. In the case of `CCOC(=O)c1c(C)[nH]c(C(=O)OCC(=O)N2CCN(S(=O)(=O)c3ccccc3)CC2)c1C`, the max response, negative = inhibition is reported as inactive: -0.798%. For `CCn1c2ccccc2c2cc(NC(=O)c3ccc(=O)oc3)ccc21`, the Potency was inconclusive: 23.8 µM [inhibitor, single point]. In the case of `CN(C)CCCNCCCNC(=O)c1ccco1`, the max response, negative = inhibition is reported as inactive: 0.265% and inactive: -3.6%. `CCCCN1CCc2c([nH]c3ccccc23)C1=O` was tested, and the max response, negative = inhibition was inactive: -0.0313%. `Cc1cc(/C=N/n2c(COc3ccccc3C)nc3ccccc3c2=O)c(O)c([N+](=O)[O-])c1` was tested, and the Potency was inconclusive: 26.7 µM [inhibitor, single point]. In the case of `CCn1cc(C(=O)N2CCCC(N3CCN(c4ccccc4C)CC3)C2)cn1` (stereo unspecified), the Potency is reported as inconclusive: 26.7 µM [inhibitor, single point]. For `O=C(NC1CCN(Cc2ccccc2)CC1)c1cccc(S(=O)(=O)Nc2ccc(SC(F)F)cc2)c1`, the Potency was inconclusive: 11.9 µM [inhibitor, partial curve]. `Cc1cc(C(=O)COC(=O)c2ccc3c(c2)NC(=O)CS3)c(C)n1CC1CCCO1` (stereo unspecified) was tested, and the max response, negative = inhibition was inconclusive: -32.7% [inhibitor]. In the case of `Cc1ccccc1N1C(=O)C2CCCN2C1=S` (stereo unspecified), the Potency is reported as inconclusive: 21.2 µM [inhibitor, partial curve]. For `CN(C)c1ccnc2c[cH-]cc12.[Fe].c1ccc(-[c-]2[c-](-c3ccccc3)[c-](-c3ccccc3)[c-](-c3ccccc3)[c-]2-c2ccccc2)cc1` (stereo unspecified), the max response, negative = inhibition was inactive: -0.848% and inactive: -14.3%. In the case of `CCOc1ccccc1NC(=O)CSc1nnc(CNC(=O)c2cc(OC)c(OC)c(OC)c2)o1`, the max response, negative = inhibition is reported as inconclusive: -35.2% [inhibitor]. With `C[n+]1ccc(C(=O)N/N=C/c2ccco2)cc1` the max response, negative = inhibition was inactive: -14.1%. `Cn1cc(C(=O)C(=O)NC2CC2)c2ccccc21` was tested, and the Potency was active: 26.7 µM. For `COc1ccccc1OCc1nnc(SCC(=O)NCc2ccco2)n1Cc1ccco1`, the Potency was inconclusive: 21.2 µM [inhibitor, partial curve]. With `CSc1ccc(C(c2c(C)[nH][nH]c2=O)c2c(C)[nH][nH]c2=O)cc1` the Potency was inconclusive: 29.9 µM [inhibitor, partial curve]. `COc1cccc(C(C)=C2SC(=S)NC2=O)c1` was tested, and the Potency was inconclusive: 29.9 µM [inhibitor, single point]. In the case of `CCN(CC)C(=O)C1=C(C)N(Cc2ccc(OC)cc2)C(=O)C(CC(=O)NC2CCCCC2)C1` (stereo unspecified), the max response, negative = inhibition is reported as inactive: -8.17%. `O=C(Oc1ccc2ccc(O)cc2c1)c1ccccc1Cl` was tested, and the max response, negative = inhibition was inactive: -4.76%. `O=C(c1ccc2c(=O)n3c(nc2c1)CCCCC3)N1CCCCC1` was tested, and the Potency was inconclusive: 21.2 µM [inhibitor, partial curve]. With `Cc1cc(/C=N/n2c(COc3ccccc3)nc3ccccc3c2=O)c(O)c([N+](=O)[O-])c1` the Potency was inconclusive: 37.7 µM [inhibitor, partial curve]. For `Cc1cc(C)c(C#N)c(SCc2ccccc2[N+](=O)[O-])n1`, the Potency was inconclusive: 37.7 µM [inhibitor, single point]. For `Cc1ccc(C)c(C(=O)COC(=O)C(C)N2C(=O)C3C4CCC(C4)C3C2=O)c1` (stereo unspecified), the Potency was inconclusive: 29.9 µM [inhibitor, partial curve]. With `Cn1cc(CN2CCC(C(=O)Nc3cccc(-c4cccc(F)c4)c3)CC2)cn1` the max response, negative = inhibition was inactive: 5.33%. For `N#CC1=C(N)NC(=S)C(C(N)=O)C1c1ccccc1F` (stereo unspecified), the Potency was active: 18.9 µM. For `CNC(=S)N(CCO)Cc1cc2cc3c(cc2[nH]c1=O)OCCO3`, the Potency was inconclusive: 29.9 µM [inhibitor, partial curve]. With `O=C(CN1C(=O)NC2(CCCCCC2)C1=O)Nc1ccc(OC(F)(F)F)cc1` the max response, negative = inhibition was inactive: 0.875%. `COc1ccc(NC(=O)CNS(=O)(=O)c2cccc3nonc23)c(OC)c1` was tested, and the Potency was active: 29.9 µM. With `COc1cc(C(=O)NCCOc2cc(C)cc(C)c2)cc(OC)c1OC` the max response, negative = inhibition was inactive: 0.454%. With `O=C(c1ccc(C(F)(F)F)cc1)C1CCCN(Cc2cccn2-c2ncccn2)C1` (stereo unspecified) the max response, negative = inhibition was inactive: -12.9%. `CC(C)N1CCC1(C)C(=O)Nc1nc2ccccc2[nH]1` (stereo unspecified) was tested, and the max response, negative = inhibition was inactive: -1.07%. `CCOC(=O)c1c(NS(=O)(=O)c2ccc(Br)cc2)sc2c1CCC2` was tested, and the Potency was active: 21.2 µM. For `C/C(=N\NC(N)=S)c1ccccc1`, the max response, negative = inhibition was inconclusive: -35.4% [inhibitor]. In the case of `N/C(=N\OC(=O)CSc1ccccc1)c1ccc([N+](=O)[O-])cc1`, the Potency is reported as active: 26.7 µM. For `Cc1ccc(S[C@@H](CCN2CC[C@H](NC(=O)OCc3ccccc3)CCC2=O)c2ccccc2)cc1`, the Potency was inconclusive: 21.2 µM [inhibitor, partial curve]. In the case of `Cc1nn(CCS(=O)(=O)c2ccc(Cl)cc2)c(C)c1Br`, the Potency is reported as inconclusive: 37.7 µM [inhibitor, single point]. For `CC(C)N1C(=O)C2C(c3ccccc3O)NC(C)(C(=O)O)C2C1=O` (stereo unspecified), the max response, negative = inhibition was inactive: -0.0352%. `CC1Sc2ccc(S(=O)(=O)CCC(=O)Nc3cc(F)ccc3F)cc2NC1=O` (stereo unspecified) was tested, and the Potency was inconclusive: 26.7 µM [inhibitor, partial curve]. With `Cc1ccc(/C=C/C(=O)Nc2ccc(Oc3ccccc3)cc2)o1` the max response, negative = inhibition was inactive: -11.4%. For `Cc1ccccc1-c1nnn(Cc2ccc(-c3nn[nH]n3)cc2)n1`, the Potency was inconclusive: 33.6 µM [inhibitor, single point]. `O=C1NC(=Nc2ccccc2)S/C1=C\C=C\c1ccco1` was tested, and the Potency was inconclusive: 18.9 µM [inhibitor, partial curve]. With `C(=N\NC1=Nc2cccc3cccc1c23)/c1ccccc1` the Potency was inconclusive: 37.7 µM [inhibitor, single point]. For `Cc1cc(=O)nc2c3ccccc3n(CC(=O)NCCCN3CCOCC3)n12`, the Potency was active: 18.9 µM. In the case of `CC1(c2nnnn2Cc2ccccc2)CCC(=O)N1Cc1cccc(C(F)(F)F)c1` (stereo unspecified), the max response, negative = inhibition is reported as inactive: -3.11%. `O=[N+]([O-])c1ccc(Cl)c(S(=O)(=O)Nc2cccc(S(=O)(=O)NC3=NCCC3)c2)c1` was tested, and the Potency was inconclusive: 21.2 µM [inhibitor, partial curve].
